For at least one compound, name, drawing or mass did not settle the structure.
Test system: E. coli clone K12ΔHΔtrp containing pBIN10
Test: Growth of E. coli clone on kanamycin
Assay type: cell-based
Conditions: 400 ug/ml Km, 28° C.

With `NC[C@H]1O[C@H](O[C@H]2[C@H](O)[C@@H](O[C@H]3O[C@H](CO)[C@@H](O)[C@H](N)[C@H]3O)[C@H](N)C[C@@H]2N)[C@H](O)[C@@H](O)[C@@H]1O` [Km, kanamycin] the growth on kanamycin was “able to grow”.
